Experimental data: doi:10.1101/2020.07.05.188557
No constants are given. Whether binding was seen depends on the method and setting. Binding seen in cells or lysates may run through a third protein. Some results given as binding are weak or reduced against the parent protein; the word gives no strength. Where a sequence is shown, tags or fusion partners need not be part of it.

Assays:
Assay in all cases: split reporter
[1] = molecular target: T1, Gnp1-Cub-GST-6xHA (S. cerevisiae) (UniProt P48813)
T1 sequence: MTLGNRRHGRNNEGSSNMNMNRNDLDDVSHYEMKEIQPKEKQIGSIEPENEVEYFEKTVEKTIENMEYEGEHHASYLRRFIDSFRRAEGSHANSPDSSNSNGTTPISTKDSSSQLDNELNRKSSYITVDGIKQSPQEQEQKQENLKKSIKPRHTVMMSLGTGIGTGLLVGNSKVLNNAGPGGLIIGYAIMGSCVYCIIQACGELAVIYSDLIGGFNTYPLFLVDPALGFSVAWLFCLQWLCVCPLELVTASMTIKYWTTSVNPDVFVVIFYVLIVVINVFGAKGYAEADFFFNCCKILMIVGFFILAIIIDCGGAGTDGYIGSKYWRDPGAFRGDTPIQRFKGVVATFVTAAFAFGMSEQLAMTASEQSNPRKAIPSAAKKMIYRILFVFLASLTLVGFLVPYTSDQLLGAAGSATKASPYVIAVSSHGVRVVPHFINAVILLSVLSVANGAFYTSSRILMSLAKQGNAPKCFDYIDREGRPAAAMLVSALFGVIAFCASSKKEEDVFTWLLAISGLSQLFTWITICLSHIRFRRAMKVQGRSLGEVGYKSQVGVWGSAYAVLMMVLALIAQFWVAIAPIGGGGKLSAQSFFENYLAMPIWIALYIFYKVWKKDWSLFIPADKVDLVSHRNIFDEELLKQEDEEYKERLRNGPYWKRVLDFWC

[2] = molecular target: T2, Ssy1-Cub-GST-6xHA (S. cerevisiae) (UniProt Q03770)
T2 sequence: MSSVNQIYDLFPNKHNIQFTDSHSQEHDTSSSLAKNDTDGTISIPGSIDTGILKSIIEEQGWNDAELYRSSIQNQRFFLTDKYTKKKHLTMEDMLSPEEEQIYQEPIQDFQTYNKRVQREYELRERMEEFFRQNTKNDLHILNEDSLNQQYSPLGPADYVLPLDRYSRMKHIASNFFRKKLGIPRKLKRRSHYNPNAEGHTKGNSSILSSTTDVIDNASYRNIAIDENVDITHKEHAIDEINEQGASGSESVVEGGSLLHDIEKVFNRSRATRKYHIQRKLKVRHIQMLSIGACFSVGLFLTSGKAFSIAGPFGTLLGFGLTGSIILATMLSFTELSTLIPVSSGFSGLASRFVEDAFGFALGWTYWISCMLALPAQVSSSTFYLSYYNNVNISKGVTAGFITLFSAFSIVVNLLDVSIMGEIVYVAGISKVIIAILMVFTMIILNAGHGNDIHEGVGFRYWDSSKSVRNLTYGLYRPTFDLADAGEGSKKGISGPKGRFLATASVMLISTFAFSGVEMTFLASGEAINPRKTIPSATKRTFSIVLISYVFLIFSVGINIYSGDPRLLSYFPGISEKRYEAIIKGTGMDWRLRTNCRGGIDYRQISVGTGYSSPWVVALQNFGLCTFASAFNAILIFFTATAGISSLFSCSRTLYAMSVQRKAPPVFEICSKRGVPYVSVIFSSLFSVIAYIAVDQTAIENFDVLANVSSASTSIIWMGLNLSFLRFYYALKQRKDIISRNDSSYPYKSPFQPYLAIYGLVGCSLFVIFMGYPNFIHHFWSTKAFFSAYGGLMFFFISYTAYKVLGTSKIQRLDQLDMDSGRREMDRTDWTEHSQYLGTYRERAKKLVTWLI

[3] = molecular target: T3, Agp1-Cub-GST-6xHA (S. cerevisiae) (UniProt P25376)
T3 sequence: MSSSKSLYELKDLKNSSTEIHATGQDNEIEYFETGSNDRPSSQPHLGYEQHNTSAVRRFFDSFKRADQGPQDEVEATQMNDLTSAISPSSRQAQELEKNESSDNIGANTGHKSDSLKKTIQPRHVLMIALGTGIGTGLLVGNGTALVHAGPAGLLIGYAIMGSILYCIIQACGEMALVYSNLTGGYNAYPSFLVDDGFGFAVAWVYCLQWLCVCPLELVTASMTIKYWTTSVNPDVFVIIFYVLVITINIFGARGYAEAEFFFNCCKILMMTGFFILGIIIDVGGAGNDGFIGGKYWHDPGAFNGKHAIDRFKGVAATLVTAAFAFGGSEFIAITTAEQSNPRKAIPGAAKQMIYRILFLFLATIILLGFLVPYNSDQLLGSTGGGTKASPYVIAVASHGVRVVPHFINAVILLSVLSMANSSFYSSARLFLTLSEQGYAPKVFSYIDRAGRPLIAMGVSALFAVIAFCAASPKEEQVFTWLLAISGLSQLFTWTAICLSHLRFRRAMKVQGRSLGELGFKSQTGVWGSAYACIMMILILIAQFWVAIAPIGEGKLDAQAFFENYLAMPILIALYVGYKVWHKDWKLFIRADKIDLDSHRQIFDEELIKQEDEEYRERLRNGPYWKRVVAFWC

Measured: binding

B1: Shr3-NubA (protein, UniProt Q02774 1-210)
chain: MFSYSDFCSIGTAMILSATTFLMGVFFSNMPYDYHLLFNPNSTQEHFDLALRHYQILHETPLPVIVTLCVVAGIGLVGGTIKVFKPNPELQMFEYCSLGLYVLAICVFLTNVKTGIDCSVSHNWGEVTENQGLAVIASSNIILLVMFAGVIILQIGLWYSNWDLQKRLKEFYAQEEREAANAGKKTEKVDNAKKNDNKSKGAQKRKNAKK
binds: all assays above

B2: Shr3Δ94-NubA (protein, UniProt Q02774)
chain: MFSYSDFCSIGTAMILSATTFLMGVFFSNMPYDYHLLFNPNSTQEHFDLALRHYQILHETPLPVIVTLCVVAGIGLVGGTIKVFKPNPELQMFEYCSLGLYVLAICVFLTNVKTGIDCSVTENQGLAVIASSNIILLVMFAGVIILQIGLWYSNWDLQKRLKEFYAQEEREAANAGKKTEKVDNAKKNDNKSKGAQKRKNAKK
binds: all assays above
